Measured values published in the M2OR odorant receptor database.
Some of the results follow. Calls are pooled over several reports, among them a noisy single-well screen.

What was measured:
Conditions in all cases: stereoisomer not certain
[1] = tested on: T1, O13C5
T1 sequence (whole entry): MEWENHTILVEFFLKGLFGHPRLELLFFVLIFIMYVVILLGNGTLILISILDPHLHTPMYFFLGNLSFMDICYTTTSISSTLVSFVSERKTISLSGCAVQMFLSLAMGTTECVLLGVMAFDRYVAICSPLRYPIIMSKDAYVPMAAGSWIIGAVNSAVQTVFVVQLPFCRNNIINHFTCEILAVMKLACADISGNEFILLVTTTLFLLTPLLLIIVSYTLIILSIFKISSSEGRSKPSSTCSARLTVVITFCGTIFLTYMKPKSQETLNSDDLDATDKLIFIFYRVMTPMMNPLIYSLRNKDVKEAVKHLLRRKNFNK
In short: (§1)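 Each entry records the cell line, G-protein, co-transfected protein and tags used. Methods varied with the source, often transient luciferase assays in mammalian cell lines. A receptor–molecule pair is called responsive (active) if the original authors judged its signal statistically different from baseline and non-responsive (inactive) otherwise.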

[2] = tested on: T2, O13C7
T2 sequence (whole entry): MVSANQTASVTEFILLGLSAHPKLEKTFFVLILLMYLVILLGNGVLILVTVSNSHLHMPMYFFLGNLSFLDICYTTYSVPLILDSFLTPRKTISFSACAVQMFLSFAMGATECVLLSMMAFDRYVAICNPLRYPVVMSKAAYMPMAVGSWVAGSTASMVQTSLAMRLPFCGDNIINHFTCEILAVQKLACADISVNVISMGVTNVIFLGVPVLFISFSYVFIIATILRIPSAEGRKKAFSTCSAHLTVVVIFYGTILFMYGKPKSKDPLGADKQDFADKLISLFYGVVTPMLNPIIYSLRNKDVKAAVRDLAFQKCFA
In short: as §1

[3] = tested on: T3, O13C9
T3 sequence (whole entry): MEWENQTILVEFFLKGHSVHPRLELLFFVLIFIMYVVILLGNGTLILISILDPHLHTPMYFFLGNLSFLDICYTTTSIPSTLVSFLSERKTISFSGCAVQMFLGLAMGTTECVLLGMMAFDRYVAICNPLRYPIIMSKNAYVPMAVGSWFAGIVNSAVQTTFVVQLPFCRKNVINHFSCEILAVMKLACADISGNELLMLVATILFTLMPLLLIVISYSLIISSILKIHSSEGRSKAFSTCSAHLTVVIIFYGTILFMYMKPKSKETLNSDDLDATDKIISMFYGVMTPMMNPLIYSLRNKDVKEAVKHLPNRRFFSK
In short: as §1

[4] = tested on: T4, O13D1
T4 sequence (whole entry): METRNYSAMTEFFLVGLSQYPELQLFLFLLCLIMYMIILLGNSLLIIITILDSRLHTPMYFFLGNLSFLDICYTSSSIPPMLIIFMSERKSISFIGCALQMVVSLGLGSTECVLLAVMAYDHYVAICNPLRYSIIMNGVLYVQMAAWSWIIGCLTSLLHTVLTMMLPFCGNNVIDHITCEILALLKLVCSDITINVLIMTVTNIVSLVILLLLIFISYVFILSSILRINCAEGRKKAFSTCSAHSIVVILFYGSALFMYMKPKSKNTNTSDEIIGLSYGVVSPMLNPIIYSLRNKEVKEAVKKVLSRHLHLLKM
In short: as §1

[5] = tested on: T5, O13D1; remark: listed apart in the source
T5 sequence (whole entry): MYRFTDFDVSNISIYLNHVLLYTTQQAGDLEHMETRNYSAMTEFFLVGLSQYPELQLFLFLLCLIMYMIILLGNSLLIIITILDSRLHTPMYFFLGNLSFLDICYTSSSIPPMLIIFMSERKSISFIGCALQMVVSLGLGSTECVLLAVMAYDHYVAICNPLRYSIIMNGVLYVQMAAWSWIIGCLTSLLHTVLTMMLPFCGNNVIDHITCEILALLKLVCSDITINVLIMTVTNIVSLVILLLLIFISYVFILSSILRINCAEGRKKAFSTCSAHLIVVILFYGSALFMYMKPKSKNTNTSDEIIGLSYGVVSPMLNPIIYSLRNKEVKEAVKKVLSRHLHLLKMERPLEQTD
In short: as §1

[6] = tested on: T6, O13F1
T6 sequence (whole entry): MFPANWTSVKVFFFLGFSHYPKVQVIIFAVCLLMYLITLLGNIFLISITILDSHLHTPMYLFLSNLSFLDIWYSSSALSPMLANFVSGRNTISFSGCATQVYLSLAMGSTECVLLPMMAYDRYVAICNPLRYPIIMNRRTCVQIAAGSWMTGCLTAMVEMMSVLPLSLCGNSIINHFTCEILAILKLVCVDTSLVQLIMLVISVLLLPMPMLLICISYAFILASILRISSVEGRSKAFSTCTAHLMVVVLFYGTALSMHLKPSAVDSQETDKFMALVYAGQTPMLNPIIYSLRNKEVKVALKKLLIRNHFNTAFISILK
In short: as §1

[7] = tested on: T7, O13G1
T7 sequence (whole entry): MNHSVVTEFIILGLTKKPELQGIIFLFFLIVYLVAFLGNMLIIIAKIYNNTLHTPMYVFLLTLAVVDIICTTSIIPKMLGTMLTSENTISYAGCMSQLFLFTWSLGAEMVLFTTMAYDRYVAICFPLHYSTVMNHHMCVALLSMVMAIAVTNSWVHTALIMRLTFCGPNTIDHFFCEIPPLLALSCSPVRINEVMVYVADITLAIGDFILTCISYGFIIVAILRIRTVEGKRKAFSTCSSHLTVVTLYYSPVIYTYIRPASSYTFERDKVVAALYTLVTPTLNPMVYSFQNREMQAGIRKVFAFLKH
In short: as §1

[8] = tested on: T8, O13J1
T8 sequence (whole entry): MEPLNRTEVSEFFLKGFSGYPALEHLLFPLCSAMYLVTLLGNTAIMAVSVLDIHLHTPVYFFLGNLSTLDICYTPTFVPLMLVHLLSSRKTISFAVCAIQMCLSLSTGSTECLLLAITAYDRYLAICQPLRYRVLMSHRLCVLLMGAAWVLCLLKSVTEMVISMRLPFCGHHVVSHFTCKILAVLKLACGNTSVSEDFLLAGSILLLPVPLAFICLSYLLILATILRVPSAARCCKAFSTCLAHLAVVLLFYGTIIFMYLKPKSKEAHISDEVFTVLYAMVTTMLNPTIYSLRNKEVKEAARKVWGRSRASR
In short: as §1

[9] = tested on: T9, O14A2
T9 sequence (whole entry): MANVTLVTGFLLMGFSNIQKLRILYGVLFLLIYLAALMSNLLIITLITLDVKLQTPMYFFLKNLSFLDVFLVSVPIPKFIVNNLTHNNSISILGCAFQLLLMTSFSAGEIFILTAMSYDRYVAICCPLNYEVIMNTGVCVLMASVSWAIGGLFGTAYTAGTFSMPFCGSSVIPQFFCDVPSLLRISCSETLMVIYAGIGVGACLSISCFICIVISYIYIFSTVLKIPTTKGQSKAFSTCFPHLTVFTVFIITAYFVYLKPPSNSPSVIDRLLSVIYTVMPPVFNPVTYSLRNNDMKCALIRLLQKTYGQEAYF
In short: as §1

[10] = tested on: T10, O14AG
T10 sequence (whole entry): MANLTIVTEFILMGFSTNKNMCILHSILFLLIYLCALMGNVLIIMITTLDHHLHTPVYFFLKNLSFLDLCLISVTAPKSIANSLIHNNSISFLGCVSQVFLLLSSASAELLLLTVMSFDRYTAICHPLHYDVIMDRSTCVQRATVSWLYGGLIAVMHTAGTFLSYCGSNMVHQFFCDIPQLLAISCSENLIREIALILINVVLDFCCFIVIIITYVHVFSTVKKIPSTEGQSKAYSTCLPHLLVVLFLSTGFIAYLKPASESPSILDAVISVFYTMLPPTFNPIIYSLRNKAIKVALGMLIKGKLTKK
In short: as §1

[11] = tested on: T11, O14CZ
T11 sequence (whole entry): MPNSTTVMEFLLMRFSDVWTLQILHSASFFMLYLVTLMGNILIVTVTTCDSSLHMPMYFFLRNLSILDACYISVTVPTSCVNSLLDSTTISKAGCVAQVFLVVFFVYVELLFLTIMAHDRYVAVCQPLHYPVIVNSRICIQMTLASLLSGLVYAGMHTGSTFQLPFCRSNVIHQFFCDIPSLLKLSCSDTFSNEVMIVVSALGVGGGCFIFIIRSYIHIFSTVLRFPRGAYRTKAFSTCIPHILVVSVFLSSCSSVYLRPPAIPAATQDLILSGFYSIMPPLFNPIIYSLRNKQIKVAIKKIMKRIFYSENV
In short: as §1

[12] = tested on: T12, O14I1
T12 sequence (whole entry): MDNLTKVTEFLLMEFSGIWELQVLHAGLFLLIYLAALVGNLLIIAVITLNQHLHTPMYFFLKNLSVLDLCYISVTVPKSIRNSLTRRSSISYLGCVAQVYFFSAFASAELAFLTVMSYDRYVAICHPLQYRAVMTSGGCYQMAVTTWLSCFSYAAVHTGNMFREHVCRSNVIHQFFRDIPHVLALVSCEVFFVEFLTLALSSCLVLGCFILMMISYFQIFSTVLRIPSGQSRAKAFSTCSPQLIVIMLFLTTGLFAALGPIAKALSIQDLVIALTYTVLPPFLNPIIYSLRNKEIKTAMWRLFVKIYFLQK
In short: as §1

[13] = tested on: T13, O14J1
T13 sequence (whole entry): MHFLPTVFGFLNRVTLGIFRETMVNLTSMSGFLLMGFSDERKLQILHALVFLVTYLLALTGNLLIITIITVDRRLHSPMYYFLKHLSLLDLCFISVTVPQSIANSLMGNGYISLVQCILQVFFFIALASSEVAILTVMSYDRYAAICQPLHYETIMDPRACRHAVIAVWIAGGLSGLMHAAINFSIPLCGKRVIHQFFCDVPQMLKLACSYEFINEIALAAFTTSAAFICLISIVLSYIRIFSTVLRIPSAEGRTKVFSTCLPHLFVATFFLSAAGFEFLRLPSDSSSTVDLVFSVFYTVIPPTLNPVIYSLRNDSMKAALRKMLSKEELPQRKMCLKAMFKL
In short: as §1

[14] = tested on: T14, O14K1
T14 sequence (whole entry): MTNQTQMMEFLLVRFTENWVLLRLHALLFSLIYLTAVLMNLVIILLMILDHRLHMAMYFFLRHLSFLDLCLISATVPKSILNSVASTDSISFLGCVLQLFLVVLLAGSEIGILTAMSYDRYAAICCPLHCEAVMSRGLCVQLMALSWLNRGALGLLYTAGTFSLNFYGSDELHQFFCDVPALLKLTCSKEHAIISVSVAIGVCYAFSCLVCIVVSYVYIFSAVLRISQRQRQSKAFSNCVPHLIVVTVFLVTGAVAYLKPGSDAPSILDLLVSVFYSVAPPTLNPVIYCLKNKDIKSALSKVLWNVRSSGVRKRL
In short: as §1

Measured: odorant receptor agonist call

C=CC(C)(O)CCC=C(C)C (configuration not stated)
inactive: all assays above

CC12CCC(C1)C(C)(C)C2=O (configuration not stated)
inactive: all assays above

C=CCSCC=C
inactive: all assays above
